This is an account of results in article PMC8115037, “Paracoccus denitrificans: a genetically tractable model system for studying respiratory complex I” (Scientific Reports, 2021).

Results are given in words; binding and its absence hold for the method and conditions named. Binding seen in cells or lysates may run through a third protein. A yes stands for co-enrichment or nearness to the bait. Other partners may have been found. A no says only that the protein was not detected with the bait. Sequences can lack the tags named with a protein.

The assay concerns the target T1, Nqo5 (NDUFS3) subunit of P. denitrificans complex I with a C-terminal Ala6-His6 tag (P. denitrificans) (UniProt P29917).
T1 sequence: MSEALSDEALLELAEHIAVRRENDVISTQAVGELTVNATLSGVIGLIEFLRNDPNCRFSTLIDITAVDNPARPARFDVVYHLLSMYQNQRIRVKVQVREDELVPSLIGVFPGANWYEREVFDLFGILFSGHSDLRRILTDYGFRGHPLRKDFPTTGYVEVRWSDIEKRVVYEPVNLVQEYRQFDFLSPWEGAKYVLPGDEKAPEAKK
The assay can be described thus: affinity purification with mass spectrometry; DDM-solubilised P. denitrificans membranes on a HisTrap HP Ni column by the His6 tag on Nqo5 (wash 40-80 mM imidazole, elution 200 mM imidazole, 20 mM MES pH 6.5, 400 mM NaCl, 0.1% DDM), then Superdex 200 SEC; SDS-PAGE bands digested with trypsin, MALDI peptide mass fingerprinting.
For the substance “PdN7BM, supernumerary subunit of P. denitrificans complex I”, the binding result is reported as “binds”.

For the substance “PdNUMM, supernumerary subunit of P. denitrificans complex I”, the binding result is “binds”.

Regarding “PdNUYM, supernumerary subunit of P. denitrificans complex I”, the binding entry is “binds”.

For the substance elongation factor Tu, the binding result was “no binding”.

As to transcription termination factor Rho, the binding result is “no binding”.
